Among the data in PubChem BioAssay AID493014 (National Center for Advancing Translational Sciences (NCATS), 2011) are AC50 values, retold here.

The other results are listed elsewhere or left out. The main result of the screen is listed elsewhere. These columns were measured beside it and carry no call. Most of these compounds were active or inconclusive in the main read-out, so they are no random draw. Words in brackets tell the shape of the fitted curve; partial curves, single points and poor fits give uncertain potencies.

The test in a line: qHTS Assay to Find Inhibitors of Chronic Active B-Cell Receptor Signaling. The conditions noted are these: ABC-DLBCL IkBa-CBG/CBR reporter, luminescence ratio (green luciferase fused to IkBa over red control in TMD8 lymphoma cells), 4 h; measured here: CBR red luminescence, cell number. In a few lines:
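TMD8 ABC-DLBCL cells carrying doxycycline-inducible green luciferase fused to IkappaBalpha plus unfused red luciferase were exposed to compounds (up to 46 uM) for 4 hrs at 37C. Activity came from the overlap-corrected green/red luminescence ratio.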
For the molecule `O=C(Nc1ccc2ccccc2n1)c1ccc(Cl)cc1`, the AC50 was 7.08 µM [falling, partial curve].

`CC1=CCC2C(=O)N(c3cc(C)on3)C(=O)C2C1` (stereo not drawn): the AC50 was 13 µM [falling, partial curve].

Consider `Cn1cnnc1SC(C(=O)Nc1ccc(F)cc1)c1ccccc1` (stereo not drawn), for which the AC50 is 29.1 µM [rising, single point].

Regarding `NC(=O)COC(=O)c1ccc(Cl)c(S(=O)(=O)N2CCN(c3ccc(F)cc3)CC2)c1`, the concentration at half-maximal activity (AC50) is 35.5 µM [falling, single point].

For `CC(C)CNC(=O)COc1ccc2c3c(c(=O)oc2c1)CCC3`, the AC50 was 17.8 µM [rising, partial curve, poor fit].

With `OC(C[n+]1ccccc1)c1ccccc1` (stereo not drawn), the AC50 is 35.5 µM [rising, single point].

For the molecule `Cc1cnc(NC(=O)CCCSc2nc3ccccc3s2)s1`, the AC50 is 2.24 µM [rising, partial curve, poor fit].

As to `Cc1cccc(C)c1OCc1nc2ccccc2c(=O)n1/N=C/c1c[nH]c2ccccc12`, the AC50 was 29.1 µM [falling, single point].

With `CCOC(=O)c1oc2ccccc2c1NC(=O)CCl`, the AC50 was 20 µM [falling, partial curve, poor fit].

For the molecule `O=C(Nc1ccc2c(c1)OCO2)Nc1ccccc1F`, the AC50 is 3.98 µM [falling, full curve].

On to `Nc1c(-c2ccccn2)cnn1-c1nc(-c2ccc(F)cc2)cs1`, for which the AC50 was 3.16 µM [rising, full curve, poor fit].

Regarding `N=c1n(CCN2CCCC2)c2ccccc2n1CC(O)c1ccc(Cl)c(Cl)c1` (stereo not drawn), the AC50 was 22.4 µM [falling, single point].

As to `Cc1ccc(S(=O)(=O)N(c2cccc(C)c2)C2CCS(=O)(=O)C2)cc1` (stereo not drawn), the AC50 was 0.092 µM [falling, full curve, poor fit].

With `CCc1nnc(NC(=O)CSc2nnc(-c3ccc(S(=O)(=O)N(CC)CC)cc3)n2CC)s1`, the AC50 is 2.59 µM [falling, single point].

As for `CC(C)NC(=O)Cn1c(=O)c2c(ncn2Cc2ccccc2)n(Cc2ccccc2)c1=O`, the AC50 is 29.1 µM [falling, single point].

With `CCC1(c2ccc(Cl)cc2)NC(=S)N(c2ccc(C)cc2)N1` (stereo not drawn), the AC50 was 23.1 µM [rising, partial curve, poor fit].

On to `Cc1onc(C(=O)N2CCC(Cc3ccccc3)CC2)c1[N+](=O)[O-]`, for which the AC50 was 7.08 µM [falling, full curve].

`Cc1ccc(NC(=O)c2ccc(N3C(=O)C4CC=C(Cl)CC4C3=O)cc2)cc1` (stereo not drawn): the AC50 was 0.116 µM [falling, full curve, poor fit].

Consider `O=C(c1ccc(Cl)cc1)N1CCC(O)(CSc2ccc(Cl)cc2)CC1`, for which the AC50 is 14.1 µM [falling, single point].

In the case of `O=C(CC(NC(=O)c1ccccc1Cl)c1ccccc1)Nc1ccc2c(c1)OCO2` (stereo not drawn), the AC50 is 2.24 µM [rising, partial curve, poor fit].

In the case of `CCOC(=O)c1cc(C)nc(N2CCCCC2)c1C#N`, the AC50 is 7.08 µM [rising, partial curve].

Take `CN1CCN(CCCNCc2cn(CCC#N)c3ccccc23)CC1`: the AC50 is 5.62 µM [rising, single point].

Turning to `O=C(CSCc1cc(=O)n2nc(C3CC3)sc2n1)Nc1ccc(F)cc1`, the AC50 was 8.91 µM [falling, partial curve, poor fit].

For `Cc1ccc2cc3cc(C(=O)NCCN4CCOCC4)oc3nc2c1`, the AC50 is 0.00461 µM [rising, full curve, poor fit].

Regarding `COc1cccc(Cn2c(=O)ccc3ccccc32)c1`, the AC50 was 15.8 µM [falling, partial curve, poor fit].

With `O=S(=O)(Cc1ccccc1)N1CCN(Cc2ccccc2)CC1`, the AC50 is 18.4 µM [rising, single point].

With `CCCCCc1ccc(-c2ccc(OCC)cc2)nc1`, the AC50 is 12.6 µM [rising, single point].

Consider `O=C(Nc1nnc(S(=O)(=O)N2CCCC2)s1)c1ccccc1Cl`, for which the AC50 was 35.5 µM [rising, single point].

For `COCCNC(=O)CSc1nc2scc(-c3ccccc3)c2c(=O)[nH]1`, the AC50 is 22.4 µM [rising, partial curve, poor fit].

Consider `COc1ccc(OCc2cc(C(=O)NC3CCc4ccccc43)no2)c(Cl)c1` (stereo not drawn), for which the AC50 was 12.6 µM [falling, partial curve].

Regarding `O=C(Nc1ccc(-c2nc3ccccc3s2)cc1)C1=COCCO1`, the AC50 is 0.146 µM [rising, full curve, poor fit].

On to `CS(=O)(=O)c1ccc2nc(NC(=O)c3ccco3)sc2c1`, for which the AC50 was 23.1 µM [falling, single point].

In the case of `O=S(=O)(c1cc(Cl)ccc1Cl)N1CCCC1`, the AC50 was 2.06 µM [rising, partial curve, poor fit].

For `COc1ccc(N2CCN(c3nc4c(C)cccn4c(=O)c3/C=C(\C#N)C(N)=O)CC2)cc1`, the AC50 was 12.6 µM [falling, partial curve].

Regarding `C=CCSc1nc(N)c(C(=O)Nc2ccccc2C)cc1C(N)=O`, the AC50 is 23.1 µM [falling, single point].

Turning to `Cc1ccc(S(=O)(=O)NCC(C)NS(C)(=O)=O)cc1` (stereo not drawn), the AC50 is 8.2 µM [falling, partial curve, poor fit].

As for `CCC(=O)NC(=Nc1nc2ccccc2s1)NC(=O)CC`, the AC50 is 20.6 µM [falling, single point].

Take `CCc1nc(NCC2CCCO2)c(C#N)c2c1COC(C)(C)C2` (stereo not drawn): the AC50 is 6.51 µM [rising, single point].

For `COc1ccc(OCC(O)CN2C(=O)c3ccccc3S2(=O)=O)cc1` (stereo not drawn), the AC50 was 20 µM [rising, partial curve, poor fit].

Regarding `Cc1ccc2nsnc2c1NC(=O)c1ccc([N+](=O)[O-])o1`, the AC50 was 35.5 µM [falling, single point].

As to `O=C(Nc1ccc(Oc2cccnc2)cc1)C1CCCCN1Cc1ccc(CO)o1` (stereo not drawn), the AC50 was 35.5 µM [rising, single point].

On to `CCOc1ccccc1NC(=O)C1CC(=O)n2ncnc2N1` (stereo not drawn), for which the AC50 is 0.82 µM [rising, full curve, poor fit].

In the case of `COc1ccc(C2=NOC3(CC(=O)N(c4ccc(C)cc4)C3=O)C2)cc1` (stereo not drawn), the AC50 was 29.1 µM [rising, single point].

Broadly, the AC50 is the midpoint of the concentration-response curve, whichever way the signal moves.
